# Measurements taken from PMC12445474, “Conservation of heat stress acclimation by the IPK2-type kinases that control the synthesis of the inositol pyrophosphate 4/6-InsP7 in land plants” (PLOS Genetics, 2025).
# For at least one entry, the source does not settle the construct or the ends of the probe. For some of these results: No signal at the amounts used counts as a negative. For some of these results: At least one verdict rests on a figure or table, not on a statement of the authors. For some of these results: Tags and fusion partners may be left off the protein sequences shown.
# Columns and labels:
# MBP = assay: EMSA; conditions: 50-200 nM protein, 250 nM probe; EMSA: 250 nM FAM probe, 15 min on ice (30 min pre-incubation with partner or InsP), 6% native PAGE; binding buffer not stated (proteins purified in PBS pH 7.4); recombinant protein; protein details: His8; label: 5' FAM on strand 1
# MpHSFB1 [1] = assay: EMSA; conditions: EMSA: 250 nM FAM probe, 15 min on ice (30 min pre-incubation with partner or InsP), 6% native PAGE, binding buffer not stated (proteins purified in PBS pH 7.4), recombinant protein, protein details: N-terminal His8-MBP, label: 5' FAM on strand 1
# AtHSFA1b = target: T1, AtHSFA1b (UniProt O81821); assay: competition with a labelled probe; conditions: 50-500 nM competitor, 50 nM protein, 250 nM labelled probe; EMSA: 250 nM FAM probe, 15 min on ice (30 min pre-incubation with partner or InsP), 6% native PAGE; binding buffer not stated (proteins purified in PBS pH 7.4); recombinant protein; protein details: N-terminal His8-MBP
# T1 sequence (looked up, limits assumed): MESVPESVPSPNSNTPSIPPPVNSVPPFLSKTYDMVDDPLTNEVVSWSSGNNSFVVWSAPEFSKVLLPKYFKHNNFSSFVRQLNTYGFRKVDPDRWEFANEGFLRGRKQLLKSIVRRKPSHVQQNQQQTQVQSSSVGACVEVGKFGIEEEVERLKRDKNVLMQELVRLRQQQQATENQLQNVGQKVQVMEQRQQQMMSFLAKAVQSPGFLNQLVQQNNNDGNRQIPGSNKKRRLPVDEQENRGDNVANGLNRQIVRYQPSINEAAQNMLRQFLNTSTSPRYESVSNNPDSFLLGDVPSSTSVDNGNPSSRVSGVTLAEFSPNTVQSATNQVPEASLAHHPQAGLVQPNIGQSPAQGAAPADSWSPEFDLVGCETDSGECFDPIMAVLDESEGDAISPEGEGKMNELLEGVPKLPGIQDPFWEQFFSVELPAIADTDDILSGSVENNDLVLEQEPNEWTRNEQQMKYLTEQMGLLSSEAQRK
# MpHSFB1 [2] = assay: competition with a labelled probe; conditions: 50-500 nM competitor, 50 nM protein, 250 nM labelled probe; EMSA: 250 nM FAM probe, 15 min on ice (30 min pre-incubation with partner or InsP), 6% native PAGE; binding buffer not stated (proteins purified in PBS pH 7.4); recombinant protein; protein details: N-terminal His8-MBP
sequence,measurement,setting,value
CTCGGTCGATCGAGAAGCTTCTGCATGATG / AAACCATCATGCAGAAGCTTCTCGATCGAC [FAM-HSE (AtHSP18.1 promoter element)],binding result,MBP,no binding
same,binding result,"MpHSFB1 [1]; 25-250 nM protein, 250 nM probe",binds
same,binding result,MpHSFB1 [1]; with 4/6-InsP7 (10 nM-10 µM): no effect,binds
same,binding result,MpHSFB1 [1]; with His8-MBP (50-500 nM): no effect,binds
same,binding result,"MpHSFB1 [1]; with Ins(1,4,5)P3 (10 nM-10 µM): no effect",binds
same,binding result,MpHSFB1 [1]; with InsP6 (10 nM-10 µM): no effect,binds
same,binding result,MpHSFB1 [1]; with MBP-MpIPMK (50-500 nM): binding enhanced dose-dependently,binds
CTCGGTCGATCGAGAAGCTTCTGCATGATG / AAACCATCATGCAGAAGCTTCTCGATCGAC [unlabelled HSE competitor],binding result,AtHSFA1b,binds
same,binding result,MpHSFB1 [2],binds
CTCGGTCGATCGATGCATGATG / AAACCATCATGCATCGATCGAC [HSE∆],binding result,"MpHSFB1 [1]; 50 and 100 nM protein, 250 nM probe",no binding
